20 compounds from PubChem BioAssay AID330 (DTP/NCI, 2004) can be followed below.

The test system of this test is P388 leukemia ip, CD2F1 mice, survival T/C. Briefly: NCI In Vivo Anticancer Drug Screen. Data for tumor model P388 Leukemia (intraperitoneal) in CD2F1 (CDF1) mice. Conditions: T/C endpoint: median survival time, higher T/C = longer survival.
Where [1] appears, read: dose: 50.0 mg/kg/injection, schedule: Q01DX005 (ip), vehicle: Klucel (hydroxypropylcellulose) (HPC).
Where [2] appears, read: dose: 100.0 mg/kg/injection, schedule: Q01DX005 (ip), vehicle: Klucel (hydroxypropylcellulose) (HPC).
Where [3] appears, read: dose: 200.0 mg/kg/injection, schedule: Q01DX005 (ip), vehicle: Klucel (hydroxypropylcellulose) (HPC).
[4] abbreviates: dose: 100.0 mg/kg/injection, schedule: Q04DX003 (ip), vehicle: saline with Tween-80.
Setting [5] is: dose: 200.0 mg/kg/injection, schedule: Q04DX003 (ip), vehicle: saline with Tween-80.
Setting [6] is: dose: 400.0 mg/kg/injection, schedule: Q04DX003 (ip), vehicle: saline with Tween-80.
Setting [7] is: dose: 60.0 mg/kg/injection, schedule: Q01DX005 (ip), vehicle: saline with Tween-80.
Where [8] appears, read: dose: 120.0 mg/kg/injection, schedule: Q01DX005 (ip), vehicle: saline with Tween-80.
[9] abbreviates: dose: 240.0 mg/kg/injection, schedule: Q01DX005 (ip), vehicle: saline with Tween-80.
The mark [10] stands for this setting: dose: 50.0 mg/kg/injection, schedule: Q01DX005 (ip), vehicle: saline with Tween-80.
Setting [11] is: dose: 100.0 mg/kg/injection, schedule: Q01DX005 (ip), vehicle: saline with Tween-80.
[12] abbreviates: dose: 200.0 mg/kg/injection, schedule: Q01DX005 (ip), vehicle: saline with Tween-80.
Setting [13] is: dose: 100.0 mg/kg/injection, schedule: Q04DX003 (ip), vehicle: saline.
The mark [14] stands for this setting: dose: 200.0 mg/kg/injection, schedule: Q04DX003 (ip), vehicle: saline.
Where [15] appears, read: dose: 12.5 mg/kg/injection, schedule: Q04DX003 (ip), vehicle: saline with Tween-80.
Setting [16] is: dose: 25.0 mg/kg/injection, schedule: Q04DX003 (ip), vehicle: saline with Tween-80.
Where [17] appears, read: dose: 50.0 mg/kg/injection, schedule: Q04DX003 (ip), vehicle: Klucel (hydroxypropylcellulose) (HPC).
Where [18] appears, read: dose: 100.0 mg/kg/injection, schedule: Q04DX003 (ip), vehicle: Klucel (hydroxypropylcellulose) (HPC).
Setting [19] is: dose: 100.0 mg/kg/injection, schedule: Q01DX009 (ip), vehicle: saline.
[20] abbreviates: dose: 200.0 mg/kg/injection, schedule: Q01DX009 (ip), vehicle: saline.
[21] abbreviates: dose: 400.0 mg/kg/injection, schedule: Q01DX009 (ip), vehicle: saline.

The list shows only some results of the screen, not a fair sample: it covers a few groups of compounds. Not every dose and run of a compound is shown. T/C is the treated group as % of the vehicle group. Some doses have a count of surviving animals in place of a T/C: the source holds a T/C of zero for them, seemingly a mark for toxic or unscored doses. Some doses without a T/C left all or most animals alive at the check, yet need not have been tolerated: survival well below the control is almost never listed, so the zero probably covers shortened survival too. Counts of survivors are from the toxicity check (mostly the fifth day) where no day follows; animals may have died later. Schedule codes are those of the source, read here as Q, the interval in days (D) or hours (H), X, the number of doses. For survival time, the PubChem record calls one and a half times the control and up active, and a quarter to a half above the control has no call in these data; cut-offs in other NCI protocols can differ. Some entries hold several experiments; the values are given in rising order. Some entries show no survivor count and are marked so; the dose need not have been tolerated. Some T/C values carry the count of animals alive at the toxicity check (mostly the fifth day); where neither a count nor a note follows, no animal had died by that day.

Consider `CC(C)(C)[Si](C)(C)OC(=O)N(CCCl)CCCl`, for which the T/C (dose: 100.0 mg/kg/injection, schedule: Q01DX001 (ip), vehicle: Klucel (hydroxypropylcellulose) (HPC)) was 131 % of control; the T/C (dose: 200.0 mg/kg/injection, schedule: Q01DX001 (ip), vehicle: Klucel (hydroxypropylcellulose) (HPC)) is 137 % of control; the T/C (dose: 400.0 mg/kg/injection, schedule: Q01DX001 (ip), vehicle: Klucel (hydroxypropylcellulose) (HPC)) is 174 % of control.

Regarding `O=c1[nH]nn[nH]1`, the T/C under setting [1] was 107 % of control, the T/C under setting [2] was 107 % of control and the T/C under setting [3] was 94 % of control.

Take `ClCCN(CCCl)c1cccc(CN2CCCCC2)c1`: the survivor count is 0 of 6 (dose: 75.0 mg/kg/injection, schedule: Q04DX003 (ip), vehicle: Klucel (hydroxypropylcellulose) (HPC)); 3 of 6 (dose: 150.0 mg/kg/injection, schedule: Q04DX003 (ip), vehicle: Klucel (hydroxypropylcellulose) (HPC)); 2 of 6 (dose: 300.0 mg/kg/injection, schedule: Q04DX003 (ip), vehicle: Klucel (hydroxypropylcellulose) (HPC)).

As to `CC1=CC(C)(C)P(=O)(Cl)O1` (stereo not given), the T/C runs as follows: under setting [4], 90 % of control; under setting [5], 109 % of control; under setting [6], 95 % of control.

Turning to `COc1ccc(C2N=C(NN=C(CCl)CCl)SP2(=O)Nc2ncccn2)c(OC)c1` (stereo not given), the T/C by setting is: under setting [7], 104 % of control; under setting [8], 114 % of control; under setting [9], 103 % of control.

Regarding `O=C(c1ccc(O)cc1O)c1c([N+](=O)[O-])cc([N+](=O)[O-])cc1[N+](=O)[O-]`, the T/C by setting is: under setting [10], 99 % of control; under setting [11], 97 % of control; under setting [12], 99 % of control.

In the case of `COP(C)(=O)O.[Ce]`, the T/C by setting is: (dose: 50.0 mg/kg/injection, schedule: Q04DX003 (ip), vehicle: saline) 87 % of control [survivor count not shown]; under setting [13], 96 % of control [survivor count not shown]; under setting [14], 96 % of control [survivor count not shown].

For `O=C(c1c([N+](=O)[O-])cc([N+](=O)[O-])cc1[N+](=O)[O-])c1c([N+](=O)[O-])cc([N+](=O)[O-])cc1[N+](=O)[O-]`, the T/C reads like this: under setting [13], 108 % of control; under setting [14], 104 % of control; (dose: 400.0 mg/kg/injection, schedule: Q04DX003 (ip), vehicle: saline) 104 % of control.

For the compound `O=C(O)COc1ccc(N(CCCl)CCCl)cc1`, under setting [15], the T/C was 109 % of control. Moreover, the survivor count is 6 of 6 under setting [16]; 3 of 6 (dose: 50.0 mg/kg/injection, schedule: Q04DX003 (ip), vehicle: saline with Tween-80); 4 of 6 under setting [4]; 0 of 6 under setting [5]; 0 of 6 under setting [6].

Turning to `Clc1ccc(N(CCBr)CCBr)cc1`, the T/C was 103 % of control under setting [17]; 100 % of control [5 of 6 alive] under setting [18]; 123 % of control [5 of 6 alive] (dose: 200.0 mg/kg/injection, schedule: Q04DX003 (ip), vehicle: Klucel (hydroxypropylcellulose) (HPC)).

In the case of `O=[N+]([O-])c1c(Cl)c([N+](=O)[O-])c(Cl)c([N+](=O)[O-])c1Cl`, the T/C under setting [19] was 116 % of control, the T/C under setting [20] is 107 % of control and the T/C under setting [21] was 99 % of control [5 of 6 alive].

For the compound `O=C(O)Cc1ccc(N(CCCl)CCCl)cc1`, the T/C is 122 % of control (dose: 0.75 mg/kg/injection, schedule: Q01DX009 (ip), vehicle: saline with Tween-80); 118 % of control (dose: 1.0 mg/kg/injection, schedule: Q04DX003 (ip), vehicle: saline); 118 % of control (dose: 1.5 mg/kg/injection, schedule: Q01DX009 (ip), vehicle: saline with Tween-80); 118 % of control (dose: 2.0 mg/kg/injection, schedule: Q04DX003 (ip), vehicle: saline); 154 and 227 % of control (dose: 3.0 mg/kg/injection, schedule: Q01DX009 (ip), vehicle: saline with Tween-80); 154 % of control (dose: 4.0 mg/kg/injection, schedule: Q04DX003 (ip), vehicle: saline). Further, the T/C is 95 % of control (dose: 6.0 mg/kg/injection, schedule: Q01DX009 (ip), vehicle: saline with Tween-80); 200 % of control (dose: 6.25 mg/kg/injection, schedule: Q04DX003 (ip), vehicle: saline with Tween-80); 177 % of control under setting [15]. Besides, the survivor count (dose: 12.0 mg/kg/injection, schedule: Q01DX009 (ip), vehicle: saline with Tween-80) is 5 of 6 and the survivor count under setting [16] is 6 of 6.

In the case of `O=c1c2ccccc2c(=O)n2n1P(Cl)CP2Cl` (stereo not given), the T/C is 92 % of control under setting [7] and 92 % of control under setting [8]. Further, under setting [9], the survivor count is 0 of 6.

`N/C=N/P(=O)(Oc1ccccc1)Oc1ccccc1`: the T/C was 102 % of control (dose: 25.0 mg/kg/injection, schedule: Q04DX003 (ip), vehicle: Klucel (hydroxypropylcellulose) (HPC)) and 100 % of control under setting [17]. For the same compound, under setting [18], the survivor count was 1 of 6.

For the compound `O=C1NC(=O)C(c2cccc(N(CCCl)CCCl)c2)N1` (stereo not given), the T/C (dose: 6.25 mg/kg/injection, schedule: Q01DX009 (ip), vehicle: Klucel (hydroxypropylcellulose) (HPC)) was 108 % of control; the T/C (dose: 12.5 mg/kg/injection, schedule: Q01DX009 (ip), vehicle: Klucel (hydroxypropylcellulose) (HPC)) was 107 % of control; the T/C (dose: 25.0 mg/kg/injection, schedule: Q01DX009 (ip), vehicle: Klucel (hydroxypropylcellulose) (HPC)) is 104 % of control; the T/C (dose: 50.0 mg/kg/injection, schedule: Q01DX009 (ip), vehicle: Klucel (hydroxypropylcellulose) (HPC)) is 108 % of control; the T/C (dose: 100.0 mg/kg/injection, schedule: Q01DX009 (ip), vehicle: Klucel (hydroxypropylcellulose) (HPC)) was 97 % of control.

Take `C/C(N)=N\P(=O)(O)O`: the T/C was 101 % of control under setting [1]; 97 and 101 % of control under setting [2]; 100 and 104 % of control under setting [3]. Besides, the survivor count under setting [1] was 5 of 6.

In the case of `O=C(Nc1ccc([N+](=O)[O-])cc1)c1cc([N+](=O)[O-])cc([N+](=O)[O-])c1Cl`, the T/C is 90 % of control under setting [10], 95 % of control under setting [11] and 91 % of control under setting [12].

For `CCOC(=O)CCC([N+](=O)[O-])([N+](=O)[O-])[N+](=O)[O-]`, the T/C was 111 % of control under setting [19], 116 % of control under setting [20] and 125 % of control under setting [21].

For the compound `Cc1ccc(N2CC=C(c3ccc(Cl)cc3Cl)OP2(=O)Cl)cc1` (stereo not given), the T/C is 100 % of control (dose: 25.0 mg/kg/injection, schedule: Q01DX005 (ip), vehicle: saline with Tween-80); 102 % of control under setting [10]; 100 % of control under setting [11].

Consider `COc1ccc(CN2CCCN(Cc3ccc(OC)cc3)P2(=O)Cl)cc1`, for which the T/C was 97 % of control (dose: 25.0 mg/kg/injection, schedule: Q01DX001 (ip), vehicle: saline); 100 % of control (dose: 50.0 mg/kg/injection, schedule: Q01DX001 (ip), vehicle: saline); 103 % of control (dose: 100.0 mg/kg/injection, schedule: Q01DX001 (ip), vehicle: saline); 95 % of control (dose: 200.0 mg/kg/injection, schedule: Q01DX001 (ip), vehicle: saline).
